Source: publication doi:10.1101/431023

Key:
[1] = molecular target: T1, dox-inducible 3xFLAG-BirA*-tagged TCF7L1 in the Rosa26 locus (UniProt Q9Z1J1); experiment: proximity labelling
T1 sequence: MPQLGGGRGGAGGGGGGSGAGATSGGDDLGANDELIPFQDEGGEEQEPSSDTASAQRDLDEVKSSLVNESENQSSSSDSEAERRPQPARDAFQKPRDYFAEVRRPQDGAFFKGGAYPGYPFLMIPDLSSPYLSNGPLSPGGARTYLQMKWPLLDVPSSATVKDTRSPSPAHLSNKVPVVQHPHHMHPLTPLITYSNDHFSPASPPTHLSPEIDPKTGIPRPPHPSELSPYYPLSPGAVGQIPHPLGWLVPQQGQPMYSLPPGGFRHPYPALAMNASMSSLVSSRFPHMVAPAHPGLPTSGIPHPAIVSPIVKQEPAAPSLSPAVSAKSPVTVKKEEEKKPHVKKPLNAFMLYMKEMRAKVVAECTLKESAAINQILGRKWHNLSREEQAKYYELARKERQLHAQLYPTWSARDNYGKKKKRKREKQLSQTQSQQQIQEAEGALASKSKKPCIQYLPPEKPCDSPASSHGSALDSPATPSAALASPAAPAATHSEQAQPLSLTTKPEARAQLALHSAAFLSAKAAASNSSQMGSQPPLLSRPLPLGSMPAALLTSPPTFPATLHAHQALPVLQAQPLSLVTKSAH

[2] = molecular target: T2, 3xFLAG-BirA*-tagged TCF7L1 at the endogenous TCF7L1 locus (mouse (endogenous in mESCs)) (UniProt Q9Z1J1); experiment: proximity labelling
T2 sequence: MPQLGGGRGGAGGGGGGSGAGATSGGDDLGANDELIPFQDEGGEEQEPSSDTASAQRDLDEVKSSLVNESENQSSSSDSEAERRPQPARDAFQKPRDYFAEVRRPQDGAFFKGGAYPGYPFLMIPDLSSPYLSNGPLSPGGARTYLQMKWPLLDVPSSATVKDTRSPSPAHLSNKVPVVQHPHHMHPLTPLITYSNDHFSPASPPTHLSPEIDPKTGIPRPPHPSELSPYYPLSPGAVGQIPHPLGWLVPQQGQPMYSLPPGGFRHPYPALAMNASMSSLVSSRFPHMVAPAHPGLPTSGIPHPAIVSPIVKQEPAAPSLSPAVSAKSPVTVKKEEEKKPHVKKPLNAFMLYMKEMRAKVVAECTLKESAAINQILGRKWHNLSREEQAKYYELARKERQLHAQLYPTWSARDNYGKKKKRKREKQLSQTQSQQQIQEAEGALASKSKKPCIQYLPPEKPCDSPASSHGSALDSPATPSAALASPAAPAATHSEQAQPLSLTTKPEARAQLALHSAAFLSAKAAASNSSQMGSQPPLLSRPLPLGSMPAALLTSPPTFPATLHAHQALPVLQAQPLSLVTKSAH

B1: BRCA associated protein-1 (BAP1) (protein, UniProt Q99PU7 1-728)
chain: MNKGWLELESDPGLFTLLVEDFGVKGVQVEEIYDLQSKCQGPVYGFIFLFKWIEERRSRRKVSTLVDDTSVIDDDIVNNMFFAHQLIPNSCATHALLSVLLNCSNVDLGPTLSRMKDFTKGFSPESKGYAIGNAPELAKAHNSHARPEPRHLPEKQNGLSAVRTMEAFHFVSYVPITGRLFELDGLKVYPIDHGPWGEDEEWTDKARRVIMERIGLATAGEPYHDIRFNLMAVVPDRRIKYETRLHVLKVNRQTVLEALQQLIRVTQPELIQTHKSQESQLPEESKPASSKSPLGLEAGRTPVASECTQTDGAEEVAGSCPQTTTHSPPSKCKLVVKPPGSSLNGVPPNPAPIVQRLPAFLDNHNYAKSPMQEEEDLAAGVGRSRVPVRAPQQYSEDEDDYEDEDEDVQNTNPAIRYKRKGTGKPGSLSNSSDGQLSVLQPNTINVLTEKLQESQKDLSVPLSIKTSSGAGSPAVAVPTHSQPSPTPSNESTDTASEIGSAFNSPLRSPIRSANPTRPSSPVTSHISKVLFGEDDSLLRVDCIRYNRAVRDLGPVISTGLLHLAEDGVLSPLALTEGGKGSSPSTRSSQGSQGSSGLEEKEVVEVTESRDKPGLNRSSEPLSGEKYSPKELLALLKCVEAEIANYEACLKEEVEKRKKFKIDDQRRTHNYDEFICTFISMLAQEGMLANLVEQNISVRRRQGVSIGRLHKQRKPDRRKRSRPYKAKRQ
binding [1]: binds
binding [2]: binds

B2: ASXL Transcriptional Regulator 2 (ASXL2) (protein, UniProt Q8BZ32 1-1370)
chain: MREKGRRKKGRTWAEAAKTVLEKYPNTPMSHKEILQVIQREGLKEIRSGTSPLACLNAMLHTNSRGEEGIFYKVPGRMGVYTLKKDVPDGVKELSECSEESSDGQSDSHSSDNSSSSDGGSNKEGRKSRWKRKVSSRLSHPPSPPSGCPSPTIPASKVISPSQKHSKKALKQALKQQQQKKKQQQCRPSMSISNQHLSLKTVKAASDSVPAKPGQMKRTKCADIDVETPDSILVNTNLRALINKHTFSVLPGDCQQRLLLLLPEVDRQVGPDGLMKLNGSALNNEFFTSAAQGWKERLSEGEFTPEMQVRIRQEIEKEKKVELWKEQFFENYYGQSSGLSLEDSQKLTASSSDPKAKKTPAEQPKSILPSEASPVRIVPVVPQSECKEEAVQIPSPSQKEENQDEARPDSKSPEPVLASASNTNELITMKPIKSPKDEGLLEQKPVACAEQESEKENHVTTTSRNNKSENQEALAISPSKSKNAGLQKPIIKPVAEASPLNPDMKMPPATVTDQIQESLKRKSSLTDEEATSSWEKRPRITENRQHQQPFQVSPQPFLNRGDRVQVRKVPPLKIPVSRISPMLFSTSQVSPRARFPISITSPYRTGARTLADIKAKAQLVEAQKAAAAAAAAAAAAASVGGTIPGPGPGGGQSPREGGERKIAGGGSAGSDPVSTNGKGPTLELAGTGSRGGTRELLPCGPQPETNMPGQAQPPGISGAQLQQTSSVPTGLASSGACTSVPLPAHIEISNSEKPNLHKATATAASPCHLQDPRSCRLEKALSPTGPPLISGASTVYFVADGTVEPKAGSNKNAPKPSALAKTTAPAPLDMTSSPVTTASLEKLPVPQISGTATSTGSAPSSSTLPAASSLKTPGTSANMNGPISRTSSSIPANNPLVTQLLQGKDVPLEQILPKPLTKIEMKTVPLTTKEEKGIGIFPGISVMESSSREEVNGRQAHLAIPQLGKPLQSKQLSQVPRPVFTAKDRKDPCIDTHQYREGLSKTTQDQLFQTLIQRAQRQSVLSFVPPSQFNFAHSGFHLEDISTSQKFMLGFAGRRTSKPAMAGHYLLNISTYGRGTENIKRTHSVNPDDRFCLSSPTEALRMGHADYKNTTGEISSKEDESDEDRVGDEQEPISVKEEPWASQSSGRHPHHGEASSTNDCLASKNGKTEAPVSEQTTLGQENYIFSRGQASDEKSLPRDFIPAAHKQMTHAVRGKTVCSSPELFNSTALSLPADSPTHQPLLLPPLQTPKLYGSPTQIGPSYRGMINVSTSSDMDHNSAIPGSQVSSNVGDVMSFSVTVTTIPASQAMNPSSHGQTIPVQTFPDDNSIEDTPSKCYCRLKAMIMCKGCGAFCHDDCIGPSKLCVSCLVVR
binding [1]: binds
binding [2]: binds

B3: Lysine demethylase 1B (KDM1B) (protein, UniProt Q8CIG3 1-826)
chain: MAASRGRSKKRSNLELSPDNLPLRSSGRQAKKKAVEIPDEDEDGSSEKKYRKCEKAGCTAAYPVCFASASERCAKNGYTSRWYHLSCGEHFCNECFDHYYRSHKDGYDKYSAWKRVWTSNGKTEPSPKAFMADQQLPYWVQCTKPECGKWRQLTKEIQLTPHMARTYRCGMKPNTITKPDTPDHCSFPEDLRVLEVSNHWWYPMLIQPPLLKDSVAAPLLSAYYPDCVGMSPSCTSTHRATVTAATTTTGSASPGEMEPSKAAPSSLVLGMNRYFQPFYQPNECGKALCVRPDVMELDELYEFPEYSRDPTMYLALRNLILALWYTNCKEALTPQKCIPHIIVRGLVRIRCVQEVERILYFMTRKGLINTGVLTVAAGQHLLPKHYHNKSVLVVGAGPAGLAAARQLHNFGMKVTVLEAKDRIGGRVWDDKSFKGVVVGRGPQIVNGCINNPVALMCEQLGISMRKLGERCDLIQEGGRITDPTVDKRMDFHFNALLDVVSEWRKDKTLLQDVPLGEKIEEIYRAFVKESGIQFSELEGQVLQFHLSNLEYACGSSLHQVSARSWDHNEFFAQFAGDHTLLTPGYSTIIEKLAEGLDIRLKSPVQSIDYTGDEVQVTTTDGMGHSAQKVLVTVPLAILQRGAIQFNPPLSEKKMKAINSLGAGIIEKIALQFPYRFWDSKVQGADFFGHVPPSASQRGLFAVFYDMDSQQSVLMSVITGEAVASLRTMDDKQVLQQCMGILRELFKEQEIPEPTKYFVTRWSTEPWIQMAYSFVKTFGSGEAYDIIAEEIQGTVFFAGEATNRHFPQTVTGAYLSGVREASKIAAF
binding [1]: binds
binding [2]: binds

B4: SALL1 (protein, UniProt Q9ER74 1-1322)
chain: MSRRKQAKPQHFQSDPEVASLPRRDGDTEKGQPSRPTKSKDAHVCGRCCAEFFELSDLLLHKKSCTKNQLVLIVNESPASPAKTFPPGPSLNDPDDQMKDAANKADQEDCSDLSEPKGLDREESMEVEVPVATTTTTTTGGSGGSGGSTLSGVTNITTPSCHSGCSSGTSAITTSLPQLGDLTTLGNFSVINSNVIIENLQSTKVAVAQFSQEARCGGASGGKLLISTLMEQLLALQQQQIHQLQLIEQIRHQILLLASQSADLPAAPSIPSQGTLRTSANPLTTLSSHLSQQLAVAAGLAQSLASQSANISGVKQLPHVQLPQSSSGTSIVPPSGGTSPNMSIVTAAVPTPSSEKVASNAGASHVSSPAVSASSSPAFAISSLLSPESNPLLPQPTPANAVFPTPLPNIATTAEDLNSLSALAQQRKSKPPNVTAFEAKSTSDEAFFKHKCRFCAKVFGSDSALQIHLRSHTGERPFKCNICGNRFSTKGNLKVHFQRHKEKYPHIQMNPYPVPEHLDNVPTSTGIPYGMSIPSEKPVTSWLDTKPVLPTLTTSVGLPLPPTLPSLTPFIKTEEPAPIPISHSAASPQGSVKSDSGAPDLATRNPSGVPEEVEGSAVPPFGGKGEESNMASSAVPTAGNSTLNSPVADGGPGGTTFTNPLLPLMSEQFKAKFPFGGLLDSAQASETSKLQQLVENIDKKATDPNECIICHRVLSCQSALKMHYRTHTGERPFKCKICGRAFTTKGNLKTHYSVHRAMPPLRVQHSCPICQKKFTNAVVLQQHIRMHMGGQIPNTPVPDNYPESMESDTGSFDEKNFDDLDNFSDENMEECPEGSIPDTPKSADASQDSLSSSPLPLEMSSIAALENQMKMINAGLAEQLQASLKSVENGSMEGDVLTNDSSSVGGDMESQSAGSPAISESTSSMQALSPSNSTQEFHKSPGMEEKPQRVGPGEFANGLSPTPVNGGALDLTSSHAEKIIKEDSLGILFPFRDRGKFKNTACDICGKTFACQSALDIHYRSHTKERPFICTVCNRGFSTKGNLKQHMLTHQMRDLPSQLFEPSSNLGPNQNSAVIPANSLSSLIKTEVNGFVHVSPQDSKDAPTSHVPQGPLSSSATSPVLLPALPRRTPKQHYCNTCGKTFSSSSALQIHERTHTGEKPFACTICGRAFTTKGNLKVHMGTHMWNSTPARRGRRLSVDGPMTFLGGNPVKFPEMFQKDLAARSGSGDPSSFWNQYTAALSNGLAMKANEISVIQNGGIPPIPGSLGSGSSPISGLTGNVEKLGNSEPSAPLAGLEKMASSENGTNFRFTRFVEDSKEIVTS
binding [1]: binds
binding [2]: binds

B5: ARID3B (protein, UniProt Q9Z1N7 1-568)
chain: MEPLQQQQQQQQQKQPQQPLLQMDAREKQGPQTRESQFLYASKLGTQPALLSITPGRPSGSSVLGPLARVPPATPVARMSEQSNVNSEPEEEEGGLEDEDGDDDVAEVAEKEAQAASKYFHMQKVTRQEPRATPMSSLLPVPGLSPQGQQTKEDHTKDASKAPPSVPTAGQPSWSLDEQLKQNGALAWSDDADGGRGREISRDFAKLYELDGDPERKEFLDDLFIFMQKRGTPINRIPIMAKQILDLYMLYKLVTEKGGLVEIINKKIWREITKGLNLPTSITSAAFTLRTQYMKYLYAYECEKKALSSPAELQAAIDGNRREGRRPSYSSSLFGYSPAAAAAAAAAAAAAAASAASAGTPALLSSPKIRFSILGLGSSSGTSASSPRIPPASTLRKGDGVPVPVPNRLAVSGTLAGQQAGNRPGPLEHLRERLESGEPPEKKASRLSEEEQRLVQQAFQRNLFSMARQLPMKIRINGREDRAEPSAPALNLTTSNIGSINMSVDIDGTTYTGVLFAQKPVVHLIAGSTPQSIGSSASSSNSSSSHCSPSPTSSRGTPSAEPSTSWSL
binding [1]: binds
binding [2]: binds

No constants are given. Whether binding was seen depends on the method and setting. In cells and extracts the contact can be indirect. A yes stands for co-enrichment or nearness to the bait. Other partners may have been found. Sequences can lack the tags named with a protein.
